Some of the results follow.
How the values were obtained:
Assay in all cases: glycan array binding signal (z-score within array); higher = stronger binding
Conditions in all cases: glycan notation: IUPAC condensed, linker removed
Neu5Ac(a2-3)Gal = target: Neu5Ac(a2-3)Gal
Outline: (§1)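 Glycan array data came from 3228 arrays in the Consortium for Functional Glycomics database, and only arrays with an available protein sequence were kept. Glycan names were put into IUPAC-condensed notation, and columns mapping to the same glycan were averaged. The binding signal is a within-array Z-score, averaged across arrays of one protein sequence run at different concentrations or buffers and across linkers. A negative Z-score can be read as non-binding.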

[1] = target: Neu5Ac(a2-3)Gal(b1-3)GalNAc
Outline: as §1

[2] = target: Neu5Ac(a2-3)Gal(b1-3)GalNAc(b1-3)Gal(a1-4)Gal(b1-4)Glc
Outline: as §1

[3] = target: Neu5Ac(a2-3)Gal(b1-3)GalNAc(b1-4)[Neu5Ac(a2-3)]Gal(b1-4)Glc
Outline: as §1

[4] = target: Neu5Ac(a2-3)Gal(b1-3)GalNAc(b1-4)[Neu5Ac(a2-8)Neu5Ac(a2-3)]Gal(b1-4)Glc
Outline: as §1

[5] = target: Neu5Ac(a2-3)Gal(b1-3)GalNAc6S
Outline: as §1

[6] = target: Neu5Ac(a2-3)Gal(b1-3)GlcNAc
Outline: as §1

[7] = target: Neu5Ac(a2-3)Gal(b1-3)GlcNAc(b1-2)Man
Outline: as §1

[8] = target: Neu5Ac(a2-3)Gal(b1-3)GlcNAc(b1-2)Man(a1-3)[GlcNAc(b1-4)][Neu5Ac(a2-3)Gal(b1-3)GlcNAc(b1-2)Man(a1-6)]Man(b1-4)GlcNAc(b1-4)GlcNAc
Outline: as §1

[9] = target: Neu5Ac(a2-3)Gal(b1-3)GlcNAc(b1-2)Man(a1-3)[Neu5Ac(a2-3)Gal(b1-3)GlcNAc(b1-2)Man(a1-6)]Man(b1-4)GlcNAc(b1-4)GlcNAc
Outline: as §1

[10] = target: Neu5Ac(a2-3)Gal(b1-3)GlcNAc(b1-2)[Neu5Ac(a2-3)Gal(b1-3)GlcNAc(b1-4)]Man(a1-6)[Neu5Ac(a2-3)Gal(b1-3)GlcNAc(b1-2)Man(a1-3)]Man(b1-4)GlcNAc(b1-4)GlcNAc
Outline: as §1

[11] = target: Neu5Ac(a2-3)Gal(b1-3)GlcNAc(b1-3)Gal(b1-3)GlcNAc
Outline: as §1

[12] = target: Neu5Ac(a2-3)Gal(b1-3)GlcNAc(b1-3)Gal(b1-4)GlcNAc
Outline: as §1

[13] = target: Neu5Ac(a2-3)Gal(b1-3)GlcNAc(b1-3)GalNAc
Outline: as §1

[14] = target: Neu5Ac(a2-3)Gal(b1-3)GlcNAc(b1-4)Gal(b1-4)Glc
Outline: as §1

[15] = target: Neu5Ac(a2-3)Gal(b1-3)GlcNAc(b1-6)GalNAc
Outline: as §1

[16] = target: Neu5Ac(a2-3)Gal(b1-3)GlcNAc6S
Outline: as §1

[17] = target: Neu5Ac(a2-3)Gal(b1-3)[Fuc(a1-4)]GlcNAc
Outline: as §1

[18] = target: Neu5Ac(a2-3)Gal(b1-3)[Fuc(a1-4)]GlcNAc(b1-3)Gal(b1-3)[Fuc(a1-4)]GlcNAc
Outline: as §1

[19] = target: Neu5Ac(a2-3)Gal(b1-3)[Fuc(a1-4)]GlcNAc(b1-3)Gal(b1-4)[Fuc(a1-3)]GlcNAc
Outline: as §1

[20] = target: Neu5Ac(a2-3)Gal(b1-3)[GlcNAc(b1-6)]GalNAc
Outline: as §1

[21] = target: Neu5Ac(a2-3)Gal(b1-3)[Neu5Ac(a2-6)]GalNAc
Outline: as §1

[22] = target: Neu5Ac(a2-3)Gal(b1-3)[Neu5Ac(a2-6)]GlcNAc(b1-3)[Fuc(a1-3)[Gal(b1-4)]GlcNAc(b1-6)]Gal(b1-4)Glc
Outline: as §1

[23] = target: Neu5Ac(a2-3)Gal(b1-3)]Neu5Ac(a2-3)Gal(b1-4)]GlcNAc
Outline: as §1

Neu5Ac(a2-3)Gal(b1-4)Glc = target: Neu5Ac(a2-3)Gal(b1-4)Glc
Outline: as §1

[24] = target: Neu5Ac(a2-3)Gal(b1-4)GlcNAc
Outline: as §1

[25] = target: Neu5Ac(a2-3)Gal(b1-4)GlcNAc(b1-2)Man
Outline: as §1

[26] = target: Neu5Ac(a2-3)Gal(b1-4)GlcNAc(b1-2)Man(a1-3)[GlcNAc(b1-4)][Neu5Ac(a2-3)Gal(b1-4)GlcNAc(b1-2)Man(a1-6)]Man(b1-4)GlcNAc(b1-4)GlcNAc
Outline: as §1

[27] = target: Neu5Ac(a2-3)Gal(b1-4)GlcNAc(b1-2)Man(a1-3)[Neu5Ac(a2-3)Gal(b1-4)GlcNAc(b1-2)Man(a1-6)]Man(b1-4)GlcNAc(b1-4)GlcNAc
Outline: as §1

[28] = target: Neu5Ac(a2-3)Gal(b1-4)GlcNAc(b1-2)Man(a1-3)[Neu5Ac(a2-3)Gal(b1-4)GlcNAc(b1-2)Man(a1-6)]Man(b1-4)GlcNAc(b1-4)[Fuc(a1-6)]GlcNAc
Outline: as §1

[29] = target: Neu5Ac(a2-3)Gal(b1-4)GlcNAc(b1-2)Man(a1-3)[Neu5Ac(a2-6)Gal(b1-4)GlcNAc(b1-2)Man(a1-6)]Man(b1-4)GlcNAc(b1-4)GlcNAc
Outline: as §1

[30] = target: Neu5Ac(a2-3)Gal(b1-4)GlcNAc(b1-2)[Neu5Ac(a2-3)Gal(b1-4)GlcNAc(b1-4)]Man(a1-3)[GlcNAc(b1-4)][Neu5Ac(a2-3)Gal(b1-4)GlcNAc(b1-2)[Neu5Ac(a2-3)Gal(b1-4)GlcNAc(b1-6)]Man(a1-6)]Man(b1-4)GlcNAc(b1-4)GlcNAc
Outline: as §1

[31] = target: Neu5Ac(a2-3)Gal(b1-4)GlcNAc(b1-2)[Neu5Ac(a2-3)Gal(b1-4)GlcNAc(b1-4)]Man(a1-3)[GlcNAc(b1-4)][Neu5Ac(a2-3)Gal(b1-4)GlcNAc(b1-4)Man(a1-6)]Man(b1-4)GlcNAc(b1-4)GlcNAc
Outline: as §1

[32] = target: Neu5Ac(a2-3)Gal(b1-4)GlcNAc(b1-2)[Neu5Ac(a2-3)Gal(b1-4)GlcNAc(b1-6)]Man(a1-6)[Neu5Ac(a2-3)Gal(b1-4)GlcNAc(b1-2)Man(a1-3)]Man(b1-4)GlcNAc(b1-4)GlcNAc
Outline: as §1

[33] = target: Neu5Ac(a2-3)Gal(b1-4)GlcNAc(b1-2)[Neu5Ac(a2-3)Gal(b1-4)GlcNAc(b1-6)]Man(a1-6)[Neu5Ac(a2-3)Gal(b1-4)GlcNAc(b1-2)Man(a1-3)][GlcNAc(b1-4)]Man(b1-4)GlcNAc(b1-4)GlcNAc
Outline: as §1

[34] = target: Neu5Ac(a2-3)Gal(b1-4)GlcNAc(b1-3)Gal
Outline: as §1

[35] = target: Neu5Ac(a2-3)Gal(b1-4)GlcNAc(b1-3)Gal(b1-3)GlcNAc
Outline: as §1

[36] = target: Neu5Ac(a2-3)Gal(b1-4)GlcNAc(b1-3)Gal(b1-4)GlcNAc
Outline: as §1

[37] = target: Neu5Ac(a2-3)Gal(b1-4)GlcNAc(b1-3)Gal(b1-4)GlcNAc(b1-2)Man(a1-3)[Neu5Ac(a2-3)Gal(b1-4)GlcNAc(b1-3)Gal(b1-4)GlcNAc(b1-2)Man(a1-6)]Man(b1-4)GlcNAc(b1-4)GlcNAc
Outline: as §1

[38] = target: Neu5Ac(a2-3)Gal(b1-4)GlcNAc(b1-3)Gal(b1-4)GlcNAc(b1-3)Gal(b1-4)GlcNAc
Outline: as §1

[39] = target: Neu5Ac(a2-3)Gal(b1-4)GlcNAc(b1-3)Gal(b1-4)GlcNAc(b1-3)Gal(b1-4)GlcNAc(b1-2)Man(a1-3)[Neu5Ac(a2-3)Gal(b1-4)GlcNAc(b1-3)Gal(b1-4)GlcNAc(b1-3)Gal(b1-4)GlcNAc(b1-2)Man(a1-6)]GalNAc
Outline: as §1

[40] = target: Neu5Ac(a2-3)Gal(b1-4)GlcNAc(b1-3)Gal(b1-4)GlcNAc(b1-3)GalNAc
Outline: as §1

[41] = target: Neu5Ac(a2-3)Gal(b1-4)GlcNAc(b1-3)Gal(b1-4)GlcNAc(b1-3)[Neu5Ac(a2-3)Gal(b1-4)GlcNAc(b1-3)Gal(b1-4)GlcNAc(b1-6)]GalNAc
Outline: as §1

[42] = target: Neu5Ac(a2-3)Gal(b1-4)GlcNAc(b1-3)Gal(b1-4)GlcNAc(b1-6)[Gal(b1-3)]GalNAc
Outline: as §1

[43] = target: Neu5Ac(a2-3)Gal(b1-4)GlcNAc(b1-3)Gal(b1-4)[Fuc(a1-3)]GlcNAc
Outline: as §1

B1: Drgal1 (Danio rerio) (protein)
chain: MAGVLIQNMSFKVGQTLTITGVPKPDSTNFAINIGHSPEDIALHMNPRFDAHGDQCTIVCNSFQSGSWCEEHRDDNFPFIQDKEFQIKITFTNEEFLVTLPDGSEIHFPNRQGSEKYKYMYFEGEVRIQGVEIK
Neu5Ac(a2-3)Gal
  glycan array binding signal (z-score): -0.162
[1]
  glycan array binding signal (z-score): -0.008
[2]
  glycan array binding signal (z-score): -0.231
[3]
  glycan array binding signal (z-score): 0.468
[4]
  glycan array binding signal (z-score): 0.043
[5]
  glycan array binding signal (z-score): -0.412
[6]
  glycan array binding signal (z-score): -0.152
[7]
  glycan array binding signal (z-score): -0.651
[8]
  glycan array binding signal (z-score): 0.604
[9]
  glycan array binding signal (z-score): -0.163
[10]
  glycan array binding signal (z-score): -0.888
[11]
  glycan array binding signal (z-score): -0.311
[12]
  glycan array binding signal (z-score): -0.431
[13]
  glycan array binding signal (z-score): -0.512
[14]
  glycan array binding signal (z-score): -0.529
[15]
  glycan array binding signal (z-score): 0.18
[16]
  glycan array binding signal (z-score): -0.86
[17]
  glycan array binding signal (z-score): -0.317
[18]
  glycan array binding signal (z-score): -0.401
[19]
  glycan array binding signal (z-score): 0.029
[20]
  glycan array binding signal (z-score): -0.761
[21]
  glycan array binding signal (z-score): -0.388
[22]
  glycan array binding signal (z-score): -0.383
[23]
  glycan array binding signal (z-score): 0.301
Neu5Ac(a2-3)Gal(b1-4)Glc
  glycan array binding signal (z-score): -0.017
[24]
  glycan array binding signal (z-score): -0.346
[25]
  glycan array binding signal (z-score): -0.253
[26]
  glycan array binding signal (z-score): -0.187
[27]
  glycan array binding signal (z-score): 0.02
[28]
  glycan array binding signal (z-score): -0.242
[29]
  glycan array binding signal (z-score): -0.741
[30]
  glycan array binding signal (z-score): -0.575
[31]
  glycan array binding signal (z-score): -0.28
[32]
  glycan array binding signal (z-score): 0.197
[33]
  glycan array binding signal (z-score): 3.36
[34]
  glycan array binding signal (z-score): -0.372
[35]
  glycan array binding signal (z-score): -0.084
[36]
  glycan array binding signal (z-score): 0.603
[37]
  glycan array binding signal (z-score): -0.139
[38]
  glycan array binding signal (z-score): -0.462
[39]
  glycan array binding signal (z-score): 0.637
[40]
  glycan array binding signal (z-score): -0.307
[41]
  glycan array binding signal (z-score): -0.016
[42]
  glycan array binding signal (z-score): -0.656
[43]
  glycan array binding signal (z-score): -0.022

— the supplement of paper PMC8728848
